Results reported in patent publication US7960369B2, “Receptor function regulator” (Takeda Pharmaceutical Company Limited, priority 2002, dated 2011).
For at least one compound, name, drawing or mass did not settle the structure.

Sequences of proteins named here, by UniProt entry; tags and fusion partners are left off.
UniProt O14842, whole entry: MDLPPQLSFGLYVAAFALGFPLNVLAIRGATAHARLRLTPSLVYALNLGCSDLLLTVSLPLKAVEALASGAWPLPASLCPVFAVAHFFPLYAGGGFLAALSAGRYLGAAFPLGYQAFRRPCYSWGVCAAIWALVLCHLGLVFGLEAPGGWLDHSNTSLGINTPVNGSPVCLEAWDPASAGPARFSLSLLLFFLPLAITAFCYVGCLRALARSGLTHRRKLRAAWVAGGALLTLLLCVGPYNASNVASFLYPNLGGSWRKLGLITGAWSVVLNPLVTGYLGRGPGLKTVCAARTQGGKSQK

Molecular target: T1, human-derived GPR40 (Homo sapiens, UniProt O14842)
T1 construct: expressed in transfected cells; host or cells: CHO-K1, transient transfection with lipofectamine
Assay: Reactivity of fatty acid to human-derived GPR40, intracellular calcium by FLIPR in transfected CHO-K1 cells
Type: cell-based
Experimental: Unless specifically indicated, CHO-K1 cell line was cultured using Ham's F-12 medium (Invitrogen) containing 10% fetal calf serum (Invitrogen). The day before transfection, 4.5×10^5 per 10 cm^2 of cells were seeded, and incubated at 37° C. for not less than 15 hrs in a CO2 incubator adjusted to 5% CO2 concentration. The transfection was performed using a lipofectamine reagent (Invitrogen) and according to the reagent attached method. When a 6-well plate was used for a culture plate, transfection was performed in the following manner. First two 1.5 ml volume tubes were prepared, and 100 μl of Opti-MEM-I medium (Invitrogen) was dispensed. […] The obtained cells were counted, diluted such that 5×10^4 cells were contained per 200 μl of the medium, dispensed to black walled 96-well plate (Costar) at 200 μl per well, incubated overnight in a CO2 incubator. Various test samples were added to CHO-K1 cells transiently expressing the receptor by the above-mentioned transfection step, and changes in the intracellular calcium concentration then was measured using FLIPR (Molecular Device). […] First, an assay buffer for adding fluorescence dye Fluo-3AM (DOJIN) to the cell, or washing the cell immediately before FLIPR assay was prepared. […] The mixture was added to an assay buffer (10.6 ml) supplemented with 105 μl of fetal calf serum to give a fluorescence dye solution. […]

CC/C=C\C/C=C\C/C=C\C/C=C\C/C=C\C/C=C\CCC(=O)O [docosahexaenoic acid]
response (increase in intracellular calcium concentration) of CHO-K1 cell expressing the GPR40 receptor (added at 10^−5M-10^−6M, FLIPR, control-vector cells showed no response): specifically responds | activity in intracellular calcium ion mobilization assay using CHO cell expressing GPR40 (GPR40 agonistic activity) (as stated in Experimental Example 6): remarkable activity
